# Source: the supplement of paper PMC12889115
# Some of the results follow. Values are raw readings; no control value is given beside them.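 Primary screen: polymyxin B was added at a level permeabilizing Salmonella outer membranes while sparing inner membranes. DMSO wells, both with and without polymyxin B, established maximum growth. Plate-to-plate variation meant each plate was ranked on its own, and the lowest-OD600 compounds were selected as hits.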
# Tested on: Salmonella enterica serovar Typhimurium SL1344
# Assay: bacterial growth OD600 after 18 h with compound and polymyxin B; higher = more bacterial growth (less inhibition)
# Conditions: 50 µM, Mueller-Hinton broth
SMILES,bacterial growth OD600 (polymyxin B 0.75 µg/mL),bacterial growth OD600 (polymyxin B 1 µg/mL)
COc1cccc(CCC2CCCN(Cc3nccn3C)C2)c1 (centres undefined),0.895,–
O=C(NCc1cccnc1Oc1ccccc1)C1CC(=O)N(C2CC2)C1 (centres undefined),–,1.01
O=C(CC1(c2cccc(C(F)(F)F)c2)CC(=O)N(C2CC2)C1=O)N(CC1CCC1)CC1CCCO1 (centres undefined),0.002,–
CCN(CC)CCN(CC)C(=O)CCc1nnc(-c2ccc3c(c2)OCO3)o1,0.986,–
CN(Cc1ccccn1)c1nc2nonc2nc1NCc1ccccc1,0.549,–
CCOC(=O)C1(Cc2ccc(OC)cc2)CCN(C(=O)c2ccc(C(=O)OC)cc2)CC1,0.662,–
CN(C)CCN1C(=O)NC(Cc2cccc(F)c2)(C2CCN(C(=O)C3(C)CCCCC3)CC2)C1=O (centres undefined),0.836,–
COc1ccc(-c2ccccc2NC(=O)C2CCCN2Cc2nccn2C)cc1 (centres undefined),0.705,–
CN(C(=O)c1ccn(C)n1)C(Cc1ccccc1)C1CCN(C(=O)c2ccc3c(c2)OCCO3)CC1 (centres undefined),0.886,–
NC(=O)C1CCCN(Cc2c(C(=O)N3CCc4ccccc4C3)nc3ccc(Cl)cn23)C1 (centres undefined),0.83,–
COc1cccc(CC2(CO)CCCN(Cc3cccc(OC)c3OC)C2)c1 (centres undefined),–,0.799
CSCCC(=O)N1CCCC(N2CCN(c3cccc(C(F)(F)F)c3)CC2)C1 (centres undefined),–,0.922
CCn1ccnc1CN1CCCC(CNC(=O)C2(c3ccc(Cl)cc3)CC2)C1 (centres undefined),–,0.81
CC(C)Cc1cn[nH]c1C1CCCN(Cc2cc(Cl)ccc2O)C1 (centres undefined),0.031,–
Cc1nc(N(C)C2CCCCC2)ncc1C(C)NC(=O)c1ccoc1C (centres undefined),–,0.85
CO[C@H]1[C@H](NC(=O)c2ccncc2)c2ccccc2C12CCN(C(=O)CCc1ccc(C)cc1)CC2,0.851,–
Cc1cc(C)c(C(=O)NCc2cccnc2-n2cnc3ccccc32)c(=O)[nH]1,–,1.03
O=C(CCCc1cccs1)NC1CCCN(CCc2ccccc2)C1 (centres undefined),–,0.877
COc1ccc2[nH]c3c(c2c1)CN(C(=O)Cn1nnnc1CN1CCCC1)CC3,0.82,–

# Whole records, quoted from the list. Values in the order: bacterial growth OD600 (polymyxin B 0.75 µg/mL)	bacterial growth OD600 (polymyxin B 1 µg/mL)
# `CCn1ccnc1CN1CCCC(CNC(=O)C2(c3ccc(Cl)cc3)CC2)C1` (centres undefined) as listed: –	0.81
# `CN(Cc1ccccn1)c1nc2nonc2nc1NCc1ccccc1` as listed: 0.549	–
